The values below come from paper PMC13208891.

Protein sequences, listed by entry. Tags and fused reporters are not part of them. Lines headed by an entry give the natural chain unless they say otherwise; changes in a name come on top.
UniProt P35637: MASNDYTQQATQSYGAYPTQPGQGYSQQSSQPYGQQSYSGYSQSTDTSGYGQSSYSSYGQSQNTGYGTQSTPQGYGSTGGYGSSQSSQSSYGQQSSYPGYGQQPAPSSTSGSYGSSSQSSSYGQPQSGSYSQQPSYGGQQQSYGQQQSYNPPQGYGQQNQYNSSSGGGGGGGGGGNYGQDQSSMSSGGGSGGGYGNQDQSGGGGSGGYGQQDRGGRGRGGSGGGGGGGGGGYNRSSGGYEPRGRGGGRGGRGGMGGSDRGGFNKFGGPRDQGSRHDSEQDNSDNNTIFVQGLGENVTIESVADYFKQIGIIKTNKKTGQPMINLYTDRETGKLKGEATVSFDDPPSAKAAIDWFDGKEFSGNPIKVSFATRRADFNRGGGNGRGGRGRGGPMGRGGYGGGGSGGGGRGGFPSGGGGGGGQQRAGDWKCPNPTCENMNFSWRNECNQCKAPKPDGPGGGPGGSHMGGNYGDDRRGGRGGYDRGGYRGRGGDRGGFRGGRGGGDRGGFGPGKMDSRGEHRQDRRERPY
UniProt Q92804: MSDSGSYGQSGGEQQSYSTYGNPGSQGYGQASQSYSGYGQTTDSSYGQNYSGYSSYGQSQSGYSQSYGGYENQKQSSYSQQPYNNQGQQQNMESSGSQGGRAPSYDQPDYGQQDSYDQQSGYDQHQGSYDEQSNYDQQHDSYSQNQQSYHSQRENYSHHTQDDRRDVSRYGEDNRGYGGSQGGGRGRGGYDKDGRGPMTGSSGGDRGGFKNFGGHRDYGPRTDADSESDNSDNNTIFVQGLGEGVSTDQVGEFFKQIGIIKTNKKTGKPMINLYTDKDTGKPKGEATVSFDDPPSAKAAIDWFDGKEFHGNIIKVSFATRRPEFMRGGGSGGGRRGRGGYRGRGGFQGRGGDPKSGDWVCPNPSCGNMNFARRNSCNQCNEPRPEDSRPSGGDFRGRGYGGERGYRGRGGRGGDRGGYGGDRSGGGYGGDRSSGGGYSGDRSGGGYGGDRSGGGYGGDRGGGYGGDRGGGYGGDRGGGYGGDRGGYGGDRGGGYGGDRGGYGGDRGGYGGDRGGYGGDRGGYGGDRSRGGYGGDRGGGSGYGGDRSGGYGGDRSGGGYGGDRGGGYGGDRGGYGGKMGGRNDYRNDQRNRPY

Results are given in words; binding and its absence hold for the method and conditions named. Some binding calls cover weakened binding; strength is not graded here.

The target of the test is FUS expressed as a DB (Gal4 DNA-binding domain) fusion protein (human) (UniProt P35637). Description: two-hybrid; Gal4 yeast two-hybrid; FUS as DB fusion, TAF15 as AD fusion; diploids of Y8800 x Y8930 spotted on SD/-Leu/-Trp/-His, growth without histidine (HIS3 reporter), 30 °C, 5 days.

With “TAF15 N-terminal deletion mutant (TAF15ΔN, lacking amino acids 1-150), AD fusion (from UniProt Q92804 151-592) (domain or fragment)”, the binding result is reported as “binds”.

For “TAF15 C-terminal deletion mutant (TAF15ΔC, lacking amino acids 385-592), AD fusion (from UniProt Q92804 1-384) (domain or fragment)”, the binding entry was “no binding”.
